This test deals with L1210 leukemia ip in BDF1 mice, survival T/C. The test can be described thus: NCI In Vivo Anticancer Drug Screen. Data for tumor model L1210 Leukemia (intraperitoneal) in B6D2F1 (BDF1) mice. As to conditions: T/C endpoint: mean survival time, higher T/C = longer survival.
[1] abbreviates: dose: 400.0 mg/kg/injection, schedule: Q01DX001 (ip), vehicle: carboxymethylcellulose (CMC).
Where [2] appears, read: dose: 400.0 mg/kg/injection, schedule: Q01DX009 (ip), vehicle: saline with Tween-80.
[3] abbreviates: dose: 400.0 mg/kg/injection, schedule: Q04DX002 (ip), vehicle: saline with Tween-80.

The list does not hold the whole screen: it is rich in T/C values a quarter to a half above the control, in often repeated tests (any T/C) and in doses without a T/C. Further doses and runs are listed elsewhere. T/C is the treated group as % of the vehicle group. Some doses have a count of surviving animals in place of a T/C: the source holds a T/C of zero for them, seemingly a mark for toxic or unscored doses. Some survivor counts are full or nearly so, which does not show that the dose was tolerated: the source hardly ever lists a survival T/C far under the control, and the zero likely stands for such cases as well. Survivors were counted at the toxicity check, usually on the fifth day, unless a day is given; later deaths do not show. Schedules are NCI's codes, taken here to give the interval after Q, in days (D) or hours (H), and the number of doses after X. Some doses were run more than once; their values stand side by side, smallest first. Some schedules carry Z or #; the key to these is not given. Where survival is the endpoint, the PubChem record calls one and a half times the control and up active, and a quarter to a half above the control has no call in these data; cut-offs in other NCI protocols can differ. Some T/C values carry the count of animals alive at the toxicity check (mostly the fifth day); without a count, all were alive then.

In the case of `CCN1C=C/C(=C\C=C/c2cc[n+](CC)c3ccccc23)c2ccccc21`, the T/C (dose: 0.08 mg/kg/injection, schedule: Q01DX Z (ip), vehicle: methylcellulose (MC)) is 128 % of control; the T/C (dose: 0.11 mg/kg/injection, schedule: Q01DX Z (ip), vehicle: methylcellulose (MC)) was 128 % of control [5 of 6 alive]; the T/C (dose: 0.15 mg/kg/injection, schedule: Q01DX Z (ip), vehicle: methylcellulose (MC)) is 127 % of control; the T/C (dose: 0.2 mg/kg/injection, schedule: Q01DX Z (ip), vehicle: methylcellulose (MC)) was 107, 117, 119, 124, 202 % of control [5 of 6 alive]. In addition, the survivor count reads like this: (dose: 0.4 mg/kg/injection, schedule: Q01DX Z (ip), vehicle: methylcellulose (MC)) 2 of 6; (dose: 0.44 mg/kg/injection, schedule: Q03HX024 (ip), vehicle: saline with Tween-80) 9 of 10; (dose: 0.48 mg/kg/injection, schedule: Q03HX024 (ip), vehicle: saline with Tween-80) 6 of 10; (dose: 0.5 mg/kg/injection, schedule: Q01DX Z (ip), vehicle: methylcellulose (MC)) 3 of 6; (dose: 0.74 mg/kg/injection, schedule: Q03HX024 (ip), vehicle: saline with Tween-80) 6 of 10; (dose: 1.0 mg/kg/injection, schedule: Q04DX003 (ip), vehicle: saline with Tween-80) 6 of 10. Besides, the survivor count is, setting by setting: (dose: 1.1 mg/kg/injection, schedule: Q01DX009 (ip), vehicle: saline with Tween-80) 3 of 10; (dose: 1.1 mg/kg/injection, schedule: Q03HX024 (ip), vehicle: saline with Tween-80) 0 of 10 and 1 of 10; (dose: 1.7 mg/kg/injection, schedule: Q01DX009 (ip), vehicle: saline with Tween-80) 4 of 10 and 6 of 10; (dose: 1.7 mg/kg/injection, schedule: Q03HX024 (ip), vehicle: saline with Tween-80) 0 of 10; (dose: 2.0 mg/kg/injection, schedule: Q01DX009 (ip), vehicle: saline) 3 of 6; (dose: 2.5 mg/kg/injection, schedule: Q01DX009 (ip), vehicle: saline with Tween-80) 0 of 10. The survivor count by setting is: (dose: 2.5 mg/kg/injection, schedule: Q03HX024 (ip), vehicle: saline with Tween-80) 0 of 10; (dose: 3.3 mg/kg/injection, schedule: Q04DX003 (ip), vehicle: saline with Tween-80) 4 of 10 and 9 of 10; (dose: 4.4 mg/kg/injection, schedule: Q01DX001 (ip), vehicle: saline with Tween-80) 6 of 10; (dose: 4.4 mg/kg/injection, schedule: Q04DX003 (ip), vehicle: saline with Tween-80) 5 of 10; (dose: 4.8 mg/kg/injection, schedule: Q01DX001 (ip), vehicle: saline with Tween-80) 6 of 10; (dose: 4.8 mg/kg/injection, schedule: Q04DX003 (ip), vehicle: saline with Tween-80) 3 of 10. Also, the survivor count was 4 of 6 (dose: 6.25 mg/kg/injection, schedule: Q04DX003 (ip), vehicle: saline sonified); 0 of 10 (dose: 7.4 mg/kg/injection, schedule: Q01DX001 (ip), vehicle: saline with Tween-80); 0 of 10 and 3 of 10 (dose: 7.4 mg/kg/injection, schedule: Q04DX003 (ip), vehicle: saline with Tween-80); 0 of 10 and 1 of 10 (dose: 11.0 mg/kg/injection, schedule: Q01DX001 (ip), vehicle: saline with Tween-80); 0 of 10 and 5 of 10 (dose: 11.0 mg/kg/injection, schedule: Q04DX003 (ip), vehicle: saline with Tween-80); 4 of 6 (dose: 12.5 mg/kg/injection, schedule: Q04DX003 (ip), vehicle: saline sonified). For the same compound, the survivor count (dose: 16.5 mg/kg/injection, schedule: Q01DX001 (ip), vehicle: saline with Tween-80) is given as 0 of 10; the survivor count (dose: 16.5 mg/kg/injection, schedule: Q04DX003 (ip), vehicle: saline with Tween-80) is given as 1 of 10; the survivor count (dose: 17.0 mg/kg/injection, schedule: Q01DX001 (ip), vehicle: saline with Tween-80) is given as 0 of 10; the survivor count (dose: 17.0 mg/kg/injection, schedule: Q04DX003 (ip), vehicle: saline with Tween-80) is recorded as 0 of 10; the survivor count (dose: 25.0 mg/kg/injection, schedule: Q01DX001 (ip), vehicle: saline with Tween-80) was 0 of 10; the survivor count (dose: 25.0 mg/kg/injection, schedule: Q04DX003 (ip), vehicle: saline sonified) was 1 of 6. Further, the survivor count is recorded as 1 of 10 (dose: 25.0 mg/kg/injection, schedule: Q04DX003 (ip), vehicle: saline with Tween-80); 0 of 4 (dose: 50.0 mg/kg/injection, schedule: Q01DX001 (ip), vehicle: carboxymethylcellulose (CMC)); 0 of 4 (dose: 100.0 mg/kg/injection, schedule: Q01DX001 (ip), vehicle: carboxymethylcellulose (CMC)); 0 of 4 (dose: 200.0 mg/kg/injection, schedule: Q01DX001 (ip), vehicle: carboxymethylcellulose (CMC)); 0 of 4 under setting [1].

`COc1ccc(C(=O)NC(=S)Nc2cccc([N+](=O)[O-])c2)cc1`: the survivor count under setting [2] was 0 of 3.

`CC(C)(C)CC(O)Cc1ccccc1` (stereo not drawn): the survivor count under setting [3] is recorded as 3 of 3.

Consider `O=C(CCl)NC(O)C(Cl)(Cl)Cl` (stereo not drawn), for which the survivor count reads like this: (dose: 75.0 mg/kg/injection, schedule: Q01DX009 (ip), vehicle: saline) 1 of 6; (dose: 150.0 mg/kg/injection, schedule: Q01DX009 (ip), vehicle: saline) 0 of 6; (dose: 300.0 mg/kg/injection, schedule: Q01DX009 (ip), vehicle: saline) 0 of 6.

As to `O=C(Nc1ccc(C(=O)Nc2cc(S(=O)(=O)O)cc3cccc(S(=O)(=O)O)c23)cc1)Nc1ccc(C(=O)Nc2cc(S(=O)(=O)O)cc3cccc(S(=O)(=O)O)c23)cc1`, the survivor count (dose: 300.0 mg/kg/injection, schedule: Q01DX001 (ip), vehicle: carboxymethylcellulose (CMC)) was 1 of 6.

As for `CCOC(=O)c1ccc(NC(=S)NC(=O)c2ccccc2)cc1`, the survivor count under setting [3] was 3 of 3.

For `Oc1cc2c3c(c1)-c1c(ccc(O)c1O)CC3NCC2` (stereo not drawn), the survivor count (dose: 100.0 mg/kg/injection, schedule: Q04DX003 (ip), vehicle: DMSO) is 1 of 6.

As to `N#CCC(=O)N1CCc2ccccc2C1`, the survivor count under setting [2] was 1 of 3.

For the compound `c1ccc2cc3c(cc2c1)Nc1ccncc1N3`, the survivor count reads like this: (dose: 100.0 mg/kg/injection, schedule: Q01DX009 (ip), vehicle: saline with Tween-80) 0 of 6; (dose: 200.0 mg/kg/injection, schedule: Q01DX009 (ip), vehicle: saline with Tween-80) 0 of 6; under setting [2], 0 of 6.

Turning to `Cc1ccc(OC(=O)C(C(=O)Oc2ccc(C)cc2)C(=O)Oc2ccc(C)cc2)cc1`, the survivor count (dose: 200.0 mg/kg/injection, schedule: Q01DX001 (ip), vehicle: saline with Tween-80) was 0 of 3 and the survivor count (dose: 400.0 mg/kg/injection, schedule: Q01DX001 (ip), vehicle: saline with Tween-80) is reported as 0 of 3.

In the case of `Cc1ccnc(NS(=O)(=O)c2ccc(N=Nc3cc(N=Nc4ccccc4)c(N)nc3N)cc2)n1`, the survivor count under setting [1] is on record as 2 of 4.

For `NC(=O)C1(NC2CCCCC2)CCN(Cc2ccccc2)CC1`, where the note is “dose: 400.0 mg/kg/injection, schedule: Q04DX003 (ip), vehicle: gum acacia”, the survivor count is 0 of 6.

Consider `c1cc2c(c3c1CCCC3)CCCC2`, for which the survivor count is 5 of 6 (dose: 200.0 mg/kg/injection, schedule: Q01DX009 (ip), vehicle: saline) and 3 of 6 (dose: 400.0 mg/kg/injection, schedule: Q04DX003 (ip), vehicle: saline).

Take `Cc1cc(OC(=O)Nc2cc(Cl)ccc2C)c(C(C)C)cc1Cl`: under “dose: 200.0 mg/kg/injection, schedule: Q01DX009 (ip), vehicle: Klucel (hydroxypropylcellulose) (HPC)”, the survivor count was 3 of 3.

For the origin of these results see PubChem BioAssay AID248 (DTP/NCI, 2004).
